{
  "source": "patent US20200323999A1",
  "about": "(The Board of Trustees of the Leland Stanford Junior …, priority 2019, published 2020)",
  "origin": "cited, not measured here",
  "settings": "cited from earlier work",
  "note": "At least one structure is not confirmed: it was looked up by name or label, or the drawing left a doubt.",
  "data": [
    {"smiles": "FC1(F)OC(F)(F)C(F)(F)OC(F)(F)C(F)(F)OC(F)(F)C(F)(F)OC(F)(F)C(F)(F)OC1(F)F", "note": "[Perfluoro-15-crown-5-ether, perfluoro-15-crown-5-ether]", "values": [
      {"measurement": "Vapor pressure", "value": 0.92, "unit": "kPa"}
    ]}
  ]
}
